Among the data in publication doi:10.1101/2023.03.09.531843 are binding values, retold here.

Chains of the proteins cited; added tags and fusions are not shown.
UniProt P12004: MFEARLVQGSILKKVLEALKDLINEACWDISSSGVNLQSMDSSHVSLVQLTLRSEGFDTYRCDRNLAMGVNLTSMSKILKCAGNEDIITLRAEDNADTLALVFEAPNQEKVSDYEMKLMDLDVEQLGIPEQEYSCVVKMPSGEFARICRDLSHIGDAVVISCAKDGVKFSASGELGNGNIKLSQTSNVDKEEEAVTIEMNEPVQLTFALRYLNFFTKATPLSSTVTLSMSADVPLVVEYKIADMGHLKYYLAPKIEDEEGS
UniProt P15927: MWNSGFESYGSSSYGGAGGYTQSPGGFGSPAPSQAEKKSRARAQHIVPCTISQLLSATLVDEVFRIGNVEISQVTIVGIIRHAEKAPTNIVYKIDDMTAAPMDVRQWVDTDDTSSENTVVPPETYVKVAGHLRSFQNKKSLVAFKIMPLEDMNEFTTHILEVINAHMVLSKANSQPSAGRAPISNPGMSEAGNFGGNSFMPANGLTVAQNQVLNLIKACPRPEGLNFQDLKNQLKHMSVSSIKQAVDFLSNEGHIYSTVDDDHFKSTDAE

These are yes or no findings as the source states them, for the method shown. Binding seen in cells or lysates may run through a third protein. Some results given as binding are weak or reduced against the parent protein; the word gives no strength.

The target in test [1] is PCNA (human (endogenous in U2OS)) (UniProt P12004). In words: proximity ligation.
The target of test [2] is RPA32 phosphorylated at S33 (RPA32-pS33) (human (endogenous in U2OS)) (UniProt P15927). In words: proximity ligation.

B1: CGG binding protein 1 (CGGBP1) (protein, UniProt Q9UFW8 1-167)
chain: MERFVVTAPPARNRSKTALYVTPLDRVTEFGGELHEDGGKLFCTSCNVVLNHVRKSAISDHLKSKTHTKRKAEFEEQNVRKKQRPLTASLQCNSTAQTEKVSVIQDFVKMCLEANIPLEKADHPAVRAFLSRHVKNGGSIPKSDQLRRAYLPDGYENENQLLNSQDC
Consider B1, for which the binding result in test [1] and in test [2] was “binds” throughout.
